Earlier results in US12551470B2, “Metabolism enhancing compositions” (Red Mountain Med Spa, LLC, priority 2022, dated 2026).
At least one compound was matched to its structure with a doubt left.

Columns and labels:
[1] = compared to the other phytochemicals (11 phytochemicals, Tomer et al., J. Med. Food 2007)
[2] = compared to the other phytochemicals (11 phytochemicals, Tomer et al., J. Med. Food 2007); remark: listed apart in the source

For `C[C@@H]1O[C@@H](OC[C@H]2O[C@@H](Oc3c(-c4ccc(O)c(O)c4)oc4cc(O)cc(O)c4c3=O)[C@H](O)[C@@H](O)[C@@H]2O)[C@H](O)[C@H](O)[C@H]1O` [Rutin], the ORAC values [1] is listed as “low” and the TOSC values [2] is listed as “high”.
